Some results were stated once for a whole list of compounds, not compound by compound. At least one compound was matched to its structure with a doubt left.
Columns and labels:
Type in all cases: in vivo
[1] = system: Silverleaf whiteflies (Bemisia tabaci); test: Test method 5: spray on tomato seedling carrying silverleaf whitefly larvae; conditions: Test Example 5-1; 200 ppm; spray 10 mL/seedling; after 7 days
[2] = system: cotton aphids (Aphis gossypii); test: Test method 1: foliar spray on cucumber seedling infested with cotton aphids (Formulation example 1); conditions: Test Example 1-1; 500 ppm; spray 10 mL/seedling; after 5 days
[3] = system: cotton aphids (Aphis gossypii); test: Test method 2: foliar spray on cucumber seedling infested with cotton aphids (Formulation example 5); conditions: Test Example 2-1; 200 ppm; spray 10 mL/seedling; after 5 days

Row | SMILES | controlling value [1] [%] | controlling value [2] [%] | controlling value [3] [%]
1 | CCSc1c(N(C)C(=O)c2nc(C(F)(F)F)cs2)nc2ccc(I)cn12 [compound 13] | ≥ 90 | – | –
2 | O=c1oc(-c2cccc(OC(F)(F)F)c2)nn1-c1c(Cl)cncc1Cl [compound 12] | ≥ 90 | ≥ 90 | ≥ 90
3 | O=c1oc(-c2ccc3ccccc3c2)nn1-c1c(Cl)cncc1Cl [compound 33] | ≥ 90 | – | ≥ 90
4 | CC(C)(C)c1ccc(-c2nn(-c3c(Cl)cncc3Cl)c(=O)o2)cc1 [compound 25] | – | ≥ 90 | –
5 | O=c1oc(-c2ccco2)nn1-c1c(Cl)cncc1Cl [compound 83] | ≥ 90 | ≥ 90 | ≥ 90
6 | CCSc1c(N(C)C(=O)c2cc(C(F)(F)F)n(C)n2)nc2ccc(I)cn12 [compound 16] | ≥ 90 | – | –
7 | O=c1oc(-c2cccc(OCC(F)(F)F)c2)nn1-c1c(Cl)cncc1Cl [compound 108] | ≥ 90 | ≥ 90 | ≥ 90
8 | O=c1oc(-c2ccc(F)cc2)nn1-c1c(Cl)cncc1Cl [compound 14] | ≥ 90 | ≥ 90 | ≥ 90
9 | CCSc1c(N(C)C(=O)c2cnc(C(F)(F)F)s2)nc2cc(I)ccn12 [compound 10] | ≥ 90 | ≥ 90 | ≥ 90
10 | CCSc1c(N(C)C(=O)c2cnc(C(F)(F)F)s2)nc2cc(Br)ccn12 [compound 11] | ≥ 90 | ≥ 90 | ≥ 90
11 | COc1cc(OC)cc(-c2nn(-c3c(Cl)cncc3Cl)c(=O)o2)c1 [compound 69] | ≥ 90 | – | –
12 | O=c1oc(-c2cc(Br)cc(Br)c2)nn1-c1c(Cl)cncc1Cl [compound 68] | ≥ 90 | – | ≥ 90
13 | O=c1oc(-c2cccc(OC(F)(F)F)c2)nn1-c1c(Br)cncc1Br [compound 97] | ≥ 90 | – | ≥ 90
14 | O=c1oc(-c2cc(Cl)cc(OCC(F)(F)F)c2)nn1-c1c(Cl)cncc1Cl [compound 111] | ≥ 90 | – | –
15 | O=c1oc(-c2ccccc2)nn1-c1c(Cl)cncc1Cl [compound 2] | ≥ 90 | ≥ 90 | ≥ 90
16 | O=c1oc(-c2ccc(C(F)(F)F)cc2)nn1-c1c(Cl)cncc1Cl [compound 18] | ≥ 90 | – | –
17 | O=c1oc(-c2ccc(F)cc2)nn1-c1c(Br)cncc1Br [compound 146] | ≥ 90 | ≥ 90 | ≥ 90
18 | O=c1oc(-c2cccc(C(F)(F)F)c2)nn1-c1ccncc1-c1ccccc1 [compound 121] | ≥ 90 | – | ≥ 90
19 | CCS(=O)(=O)c1c(N(C)C(=O)c2cnc(C(F)(F)F)s2)nc2cc(Br)ccn12 [compound 48] | ≥ 90 | – | ≥ 90
20 | O=c1oc(-c2cccc(C(F)F)c2)nn1-c1c(Cl)cncc1Cl [compound 60] | ≥ 90 | ≥ 90 | ≥ 90
21 | O=c1oc(-c2cc(F)cc(Br)c2)nn1-c1c(Cl)cncc1Cl [compound 65] | ≥ 90 | ≥ 90 | ≥ 90

Row | SMILES | controlling value [1] [%] | controlling value [2] [%] | controlling value [3] [%]
22 | CCSc1c(N(C)C(=O)c2cnc(C(F)(F)F)s2)nc2ccc(Br)cn12 [compound 8] | ≥ 90 | ≥ 90 | ≥ 90
23 | O=c1oc(-c2cc(Cl)cc(C(F)(F)F)c2)nn1-c1c(Cl)cncc1Cl [compound 64] | ≥ 90 | ≥ 90 | –
24 | CCSc1c(N(C)C(=O)c2cn(CC(F)(F)F)nn2)nc2ccc(I)cn12 [compound 27] | ≥ 90 | – | ≥ 90
25 | O=c1oc(-c2cccc(OCC(F)(F)C(F)(F)F)c2)nn1-c1c(Cl)cncc1Cl [compound 109] | ≥ 90 | – | –
26 | O=c1oc(-c2cccc(C3CC3)c2)nn1-c1c(Cl)cncc1Cl [compound 100] | ≥ 90 | ≥ 90 | ≥ 90
27 | CC[S+]([O-])c1c(N(C)C(=O)c2cnc(C(F)(F)F)s2)nc2cc(I)ccn12 (stereo not drawn) [compound 45] | – | ≥ 90 | ≥ 90
28 | CCSc1c(N(C)C(=O)c2cnn(C(F)F)c2)nc2ccc(I)cn12 [compound 24] | – | – | ≥ 90
29 | O=c1oc(-c2cccc(C(F)(F)F)c2)nn1-c1ccncc1Cl [compound 90] | ≥ 90 | ≥ 90 | ≥ 90
30 | O=c1oc(-c2cc(F)cc(F)c2)nn1-c1c(Cl)cncc1Cl [compound 30] | ≥ 90 | ≥ 90 | ≥ 90
31 | O=c1oc(-c2ccc([N+](=O)[O-])cc2)nn1-c1c(Cl)cncc1Cl [compound 32] | – | ≥ 90 | ≥ 90
32 | CCSc1c(N(C)C(=O)c2cnc(C(F)(F)F)s2)nc2ccc(I)cn12 [compound 7] | ≥ 90 | ≥ 90 | ≥ 90
33 | CCSc1c(N(C)C(=O)c2cnn(C(F)(F)F)c2)nc2ccc(I)cn12 [compound 23] | – | ≥ 90 | ≥ 90
34 | O=c1oc(-c2ccccc2F)nn1-c1c(Cl)cncc1Cl [compound 29] | ≥ 90 | ≥ 90 | ≥ 90
35 | O=c1oc(-c2cccc(C(F)(F)C(F)(F)F)c2)nn1-c1c(Cl)cncc1Cl [compound 61] | ≥ 90 | – | ≥ 90
36 | CCS(=O)(=O)c1c(N(C)C(=O)c2cn(CC(F)(F)F)nn2)nc2ccc(I)cn12 [compound 67] | – | ≥ 90 | ≥ 90
37 | CCSc1c(N(C)C(=O)c2cc(C(F)(F)F)nn2C)nc2ccc(I)cn12 [compound 3] | – | ≥ 90 | ≥ 90
38 | CCSc1c(N(C)C(=O)c2cnc(C(F)(F)F)s2)nc2ccc(C(F)(F)F)cn12 [compound 9] | ≥ 90 | ≥ 90 | ≥ 90
39 | O=c1oc(-c2ccc(F)c(F)c2)nn1-c1c(Br)cncc1Br [compound 143] | ≥ 90 | ≥ 90 | ≥ 90
40 | O=c1oc(-c2cccc(OC(F)(F)C(F)F)c2)nn1-c1c(Cl)cncc1Cl [compound 28] | ≥ 90 | ≥ 90 | ≥ 90
41 | C=Cc1cnccc1-n1nc(-c2cccc(C(F)(F)F)c2)oc1=O [compound 118] | ≥ 90 | ≥ 90 | ≥ 90
42 | CCS(=O)(=O)c1c(N(C)C(=O)c2ccc(C(F)(F)F)o2)nc2ccc(I)cn12 [compound 39] | – | ≥ 90 | ≥ 90

Row | SMILES | controlling value [1] [%] | controlling value [2] [%] | controlling value [3] [%]
43 | O=c1oc(-c2cccc(S(=O)(=O)C(F)(F)F)c2)nn1-c1c(Cl)cncc1Cl [compound 59] | ≥ 90 | – | –
44 | O=c1oc(-c2cc(OCC(F)(F)F)c(F)cc2F)nn1-c1c(Cl)cncc1Cl [compound 112] | ≥ 90 | – | ≥ 90
45 | O=c1oc(-c2ccc3ccccc3n2)nn1-c1c(Cl)cncc1Cl [compound 51] | – | – | ≥ 90
46 | O=c1oc(-c2cc(Cl)cc(OC(F)(F)F)c2)nn1-c1c(Cl)cncc1Cl [compound 71] | ≥ 90 | ≥ 90 | ≥ 90
47 | O=c1oc(-c2cc(F)cc(OC(F)(F)F)c2)nn1-c1c(Cl)cncc1Cl [compound 56] | ≥ 90 | ≥ 90 | ≥ 90
48 | CCc1cncc(CC)c1-n1nc(-c2cccc(OC(F)(F)F)c2)oc1=O [compound 132] | ≥ 90 | – | –
49 | O=c1oc(-c2ccc(Cl)cc2)nn1-c1c(Cl)cncc1Cl [compound 15] | ≥ 90 | ≥ 90 | ≥ 90
50 | Cc1cnccc1-n1nc(-c2cccc(C(F)(F)F)c2)oc1=O [compound 119] | ≥ 90 | – | ≥ 90
51 | CCS(=O)(=O)c1c(N(C)C(=O)c2cnc(C(F)(F)F)s2)nc2ccc(I)cn12 [compound 40] | ≥ 90 | ≥ 90 | ≥ 90
52 | O=c1oc(-c2cccs2)nn1-c1c(Cl)cncc1Cl [compound 82] | – | ≥ 90 | ≥ 90
53 | O=c1oc(-c2cc(F)cc(OCC(F)(F)F)c2)nn1-c1c(Cl)cncc1Cl [compound 110] | ≥ 90 | – | ≥ 90
54 | CCCc1cncc(CCC)c1-n1nc(-c2cccc(OC(F)(F)F)c2)oc1=O [compound 134] | ≥ 90 | – | –
55 | O=c1oc(-c2cccc(C(F)(F)F)c2)nn1-c1ccncc1C1CC1 [compound 120] | ≥ 90 | – | ≥ 90
56 | COc1cccc(-c2nn(-c3c(Cl)cncc3Cl)c(=O)o2)c1 [compound 22] | ≥ 90 | – | –
57 | O=c1oc(-c2cccc([N+](=O)[O-])c2)nn1-c1c(Cl)cncc1Cl [compound 31] | – | ≥ 90 | –
58 | O=c1oc(-c2cccc([S+]([O-])C(F)(F)F)c2)nn1-c1c(Cl)cncc1Cl (stereo not drawn) [compound 58] | ≥ 90 | – | –
59 | O=c1oc(-c2ccc(I)cc2)nn1-c1c(Cl)cncc1Cl [compound 17] | ≥ 90 | ≥ 90 | –
60 | Cc1ccc(-c2nn(-c3c(Cl)cncc3Cl)c(=O)o2)cc1 [compound 20] | ≥ 90 | – | –
61 | CCSc1c(N(C)C(=O)c2ccc(C(F)(F)F)s2)nc2ccc(I)cn12 [compound 6] | ≥ 90 | – | –
